Laboratory results: PubChem BioAssay AID1259425 (University of Nebraska Medical Center, 2018)
Purpose: 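Compare each knockdown with KSR1 silencing using changes in marker transcripts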 (primary screen). System: HCT116 human colon cancer cells. Knock-down reagent: siRNA pool against human genes, 50 nM siRNA. Measured: 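After 50 nM siRNA pool, branched-DNA assay measures six marker transcripts per well, minus blank, normalised to the geometric mean of two housekeeping transcripts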. Reading the numbers: BNIP3L mRNA: higher = more BNIP3L transcript after knockdown; NDRG1 mRNA: higher = more NDRG1 transcript after knockdown; BNIP3 mRNA: higher = more BNIP3 transcript after knockdown; ALDOC mRNA: higher = more ALDOC transcript after knockdown; ACSL5 mRNA: higher = more ACSL5 transcript after knockdown.
Shown is a random part of about 14,000 reagents. Not given: the time to read-out.

target,PubChem SID,"BNIP3L mRNA, set 1","NDRG1 mRNA, set 1","BNIP3 mRNA, set 1","ALDOC mRNA, set 1","ACSL5 mRNA, set 1"
CAMP (cathelicidin antimicrobial peptide),SID363995333,0.103,0.131,0.401,0.0197,0.366
AR (androgen receptor),SID363991383,0.0991,0.216,0.253,0.025,0.171
HMGA2 (high mobility group AT-hook 2),SID363994582,0.122,0.465,0.358,0.0227,0.422
KDM4D (lysine demethylase 4D),SID364000728,0.0701,0.281,0.347,0.0268,0.156
MASP1 (MBL associated serine protease 1),SID363993092,0.0783,0.222,0.313,0.0323,0.312
SLC25A10,SID363998085,0.0672,0.0581,0.259,0.0198,0.108
TPP2 (tripeptidyl peptidase 2),SID363994410,0.142,0.232,0.397,0.0459,0.355
LPCAT2 (lysophosphatidylcholine acyltransferase 2),SID364000571,0.0954,0.217,0.169,0.0195,0.316
SCAMP2,SID363996585,0.228,0.186,0.343,0.0233,0.112
MOBP (myelin associated oligodendrocyte basic protein),SID363997298,0.0834,0.173,0.224,0.0408,0.106
"HLA-DQA1 (major histocompatibility complex, class II, DQ alpha 1)",SID363993328,0.117,0.129,0.194,0.0285,0.0449
MAPK11 (mitogen-activated protein kinase 11),SID363993909,0.144,0.097,0.271,0.00517,0.242
RAP1GAP (RAP1 GTPase activating protein),SID363994041,0.107,0.143,0.294,0.0656,0.137
PFDN2 (prefoldin subunit 2),SID363998280,0.0612,0.171,0.284,0.0103,0.203
PCDH15 (protocadherin related 15),SID364004302,0.164,0.242,0.249,0.0146,0.316
ARMH3 (armadillo like helical domain containing 3),SID364002859,0.199,0.25,0.426,0.0412,0.198
POU2F3 (POU class 2 homeobox 3),SID363998778,0.161,0.14,0.538,0.0314,0.095

In a second layout: results already given.
{"target": "HLA-DQA1 (major histocompatibility complex, class II, DQ alpha 1)", "PubChem SID": "SID363993328", "BNIP3L mRNA, set 1": 0.117, "NDRG1 mRNA, set 1": 0.129, "BNIP3 mRNA, set 1": 0.194, "ALDOC mRNA, set 1": 0.0285, "ACSL5 mRNA, set 1": 0.0449}
{"target": "MAPK11 (mitogen-activated protein kinase 11)", "PubChem SID": "SID363993909", "BNIP3L mRNA, set 1": 0.144, "NDRG1 mRNA, set 1": 0.097, "BNIP3 mRNA, set 1": 0.271, "ALDOC mRNA, set 1": 0.00517, "ACSL5 mRNA, set 1": 0.242}
{"target": "RAP1GAP (RAP1 GTPase activating protein)", "PubChem SID": "SID363994041", "BNIP3L mRNA, set 1": 0.107, "NDRG1 mRNA, set 1": 0.143, "BNIP3 mRNA, set 1": 0.294, "ALDOC mRNA, set 1": 0.0656, "ACSL5 mRNA, set 1": 0.137}
{"target": "PFDN2 (prefoldin subunit 2)", "PubChem SID": "SID363998280", "BNIP3L mRNA, set 1": 0.0612, "NDRG1 mRNA, set 1": 0.171, "BNIP3 mRNA, set 1": 0.284, "ALDOC mRNA, set 1": 0.0103, "ACSL5 mRNA, set 1": 0.203}
{"target": "PCDH15 (protocadherin related 15)", "PubChem SID": "SID364004302", "BNIP3L mRNA, set 1": 0.164, "NDRG1 mRNA, set 1": 0.242, "BNIP3 mRNA, set 1": 0.249, "ALDOC mRNA, set 1": 0.0146, "ACSL5 mRNA, set 1": 0.316}
{"target": "ARMH3 (armadillo like helical domain containing 3)", "PubChem SID": "SID364002859", "BNIP3L mRNA, set 1": 0.199, "NDRG1 mRNA, set 1": 0.25, "BNIP3 mRNA, set 1": 0.426, "ALDOC mRNA, set 1": 0.0412, "ACSL5 mRNA, set 1": 0.198}

The results go on.
target,PubChem SID,"BNIP3L mRNA, set 1","NDRG1 mRNA, set 1","BNIP3 mRNA, set 1","ALDOC mRNA, set 1","ACSL5 mRNA, set 1"
TSPO (translocator protein),SID363992011,0.147,0.31,0.284,0.0224,0.266
"PLEKHH3 (pleckstrin homology, MyTH4 and FERM domain containing H3)",SID364003167,0.0745,0.134,0.125,0.00993,0.167
VAT1 (vesicle amine transport 1),SID363997189,0.135,0.363,0.335,0.0421,0.17
ACO2 (aconitase 2),SID363992395,0.119,0.815,0.32,0.0202,0.11
PDRG1 (p53 and DNA damage regulated 1),SID364003464,0.113,0.459,0.234,0.0819,0.281
HOXA2 (homeobox A2),SID363997507,0.0753,0.206,0.373,-0.00637,0.228
STAMBPL1 (STAM binding protein like 1),SID364001835,0.049,0.267,0.25,0.0197,0.0904
ANGPTL8 (angiopoietin like 8),SID364001181,0.199,0.699,0.414,0.0725,0.352
VWA5A (von Willebrand factor A domain containing 5A),SID363998991,0.0907,0.106,0.328,-0.0048,0.147
ACTR1A (actin related protein 1A),SID363996621,0.113,0.181,0.312,0.0346,0.104
"ADH1B (alcohol dehydrogenase 1B (class I), beta polypeptide)",SID363991967,0.118,0.12,0.222,0.0127,0.148
SLC12A4,SID363996009,0.208,0.201,0.418,0.0577,0.231
CDK9 (cyclin dependent kinase 9),SID363992546,0.104,0.128,0.478,0.00915,0.188
ERF (ETS2 repressor factor),SID363997291,0.075,0.141,0.243,0.00266,0.107
PFN1 (profilin 1),SID363995961,0.0768,0.166,0.281,0.0297,0.121
SCN10A (sodium voltage-gated channel alpha subunit 10),SID363997311,0.113,0.133,0.324,0.0254,0.213
GFPT1 (glutamine--fructose-6-phosphate transaminase 1),SID363993265,0.549,0.23,0.809,0.0841,0.382
CCDC25 (coiled-coil domain containing 25),SID364000910,0.0582,0.707,0.354,0.0457,0.201
HERC5 (HECT and RLD domain containing E3 ubiquitin protein ligase 5),SID364000033,0.0635,0.143,0.265,0.0284,0.0788
H4C6 (H4 clustered histone 6),SID363994623,0.0804,0.235,0.267,0.0134,0.174
CD48 (CD48 molecule),SID363992997,0.0545,0.0674,0.195,0.0177,0.143
MYRF (myelin regulatory factor),SID363998402,0.163,0.281,0.372,0.0289,0.207
AIF1 (allograft inflammatory factor 1),SID363992849,0.0975,0.189,0.322,0.0161,0.314
IMPACT (impact RWD domain protein),SID364001072,0.057,0.233,0.259,0.0175,0.246
UBE2K (ubiquitin conjugating enzyme E2 K),SID363996255,0.123,0.0741,0.224,0.0328,0.131
TMEFF1,SID363994767,0.0655,0.16,0.309,0.0339,0.108
CDK12 (cyclin dependent kinase 12),SID364000157,0.0944,0.351,0.168,0.00837,0.145
ZNF275 (zinc finger protein 275),SID364005489,0.0842,0.11,0.241,0.0185,0.139
DUSP2 (dual specificity phosphatase 2),SID363995400,0.175,0.148,0.54,0.00619,0.375
ZSWIM6 (zinc finger SWIM-type containing 6),SID364005083,0.14,0.0998,0.391,0.0333,0.141
RRAS2 (RAS related 2),SID363998173,0.138,0.279,0.28,0.0299,0.14
CYP2S1 (cytochrome P450 family 2 subfamily S member 1),SID364003377,0.101,0.313,0.268,0.0254,0.175
FOXP3 (forkhead box P3),SID363998545,0.128,0.102,0.17,0.0113,0.157
